Measurements reported in patent US9801922B2, “Compositions and methods of treating cancer” (UNIVERSITY OF IOWA RESEARCH FOUNDATION, priority 2011, dated 2017).

Experiment: AUR, DTPP and NAC interaction by Ellman's reagent
Details: for reduction of DTNB, in words: absorbance at 412 nm

SMILES | reduction of DTNB, in words | direct reaction with NAC (412 nm absorbance), in words (equimolar with NAC, DTPP 24 h, AUR at least 1 h, 37° C.)
CC[PH](CC)(CC)[Au][S][C@@H]1O[C@H](COC(C)=O)[C@@H](OC(C)=O)[C@H](OC(C)=O)[C@H]1OC(C)=O [AUR, S-triethylphosphinegold(I)-2,3,4,6-tetra-O-acetyl-1-thio-β-D-glucopyranoside] | able to reduce DTNB | no direct reaction between NAC and AUR
CC(=O)N[C@@H](CS)C(=O)O [NAC, N-acetyl-cysteine] | capable of reducing DTNB | –
